PubChem BioAssay AID1259306 | Sanger Institute, 2017
The whole screen tested 794 reagents; shown is an unselected part. 11 of them (1.4%) were called active. 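Calls reflect knock-down alone; synergy scores play no part, so knock-downs synergising with a drug can be called no change.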 Not all columns of the deposit are shown. Reagent sequences are not shown. Not stated in the record: the amount of reagent, the time to read-out.

- Aim: 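Find kinases whose loss reduces colorectal cancer cell viability or aids targeted drugs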 (primary screen)
- Cell system: human SNU-C5 colorectal cancer cells
- Reagent: siRNA pool against human genes
- Challenge: DMSO vehicle alone, or one anchor drug: BYL719 at 1 µM, cetuximab at 5 µg/ml or trametinib at 10 nM, given 24 h into the assay
- Read-out: 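Viability versus non-targeting pool averaged across replicates, given as fraction and robust z-score, and synergy scores for BYL719, cetuximab or trametinib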
- Direction: robust z-score, knock-down alone: higher = more viable cells
- Hit rule: 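Called essential when the robust z-score for knock-down alone is below -3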
- Calls: active = essential (knock-down alone); inactive = no change alone

CDK16 (cyclin dependent kinase 16) scored robust z-score, knock-down alone -0.0836; inactive.
MAPK15 (mitogen-activated protein kinase 15) gave robust z-score, knock-down alone 0.567; inactive.
Knock-down of TSSK3 (testis specific serine kinase 3) came out at: robust z-score, knock-down alone 0.204; inactive.
MSR1 (macrophage scavenger receptor 1) gave robust z-score, knock-down alone 0.105; inactive.
With knock-down of HUNK (hormonally up-regulated Neu-associated kinase), the screen gave robust z-score, knock-down alone 0.919; inactive.
Against N4BP2 (NEDD4 binding protein 2), the values are robust z-score, knock-down alone -0.682; inactive.
With knock-down of PIK3C2B, the record shows robust z-score, knock-down alone 0.989; inactive.
PRPS2 (phosphoribosyl pyrophosphate synthetase 2) gave robust z-score, knock-down alone 0.204; inactive.
CDK5 (cyclin dependent kinase 5) scored robust z-score, knock-down alone 0.43; inactive.
EPHA1 (EPH receptor A1) showed robust z-score, knock-down alone 0.9; inactive.
Against NEK7 (NIMA related kinase 7) the deposit lists robust z-score, knock-down alone 0.989; inactive.
Knock-down of ADCK2 (aarF domain containing kinase 2) resulted in: robust z-score, knock-down alone 0.261; inactive.
Against RELA (RELA proto-oncogene, NF-kB subunit), the entry reads robust z-score, knock-down alone -0.266; inactive.
MERTK (MER proto-oncogene, tyrosine kinase) showed robust z-score, knock-down alone 0.392; inactive.
For DYRK1A, the values are robust z-score, knock-down alone 0.989; inactive.
For PRKACG (protein kinase cAMP-activated catalytic subunit gamma), the entry reads robust z-score, knock-down alone 0.989; inactive.
PIK3CA scored robust z-score, knock-down alone 0.396; inactive.
For PIK3R5 (phosphoinositide-3-kinase regulatory subunit 5) the deposit lists robust z-score, knock-down alone -1.88; inactive.
After knock-down of CDC42BPB (CDC42 binding protein kinase beta), the record shows robust z-score, knock-down alone 0.225; inactive.
With knock-down of DLG4 (discs large MAGUK scaffold protein 4) the results were robust z-score, knock-down alone 0.558; inactive.
Knock-down of CAMK1G (calcium/calmodulin dependent protein kinase IG) came out at: robust z-score, knock-down alone 0.687; inactive.
Knock-down of CDK5R1 (cyclin dependent kinase 5 regulatory subunit 1) gave: robust z-score, knock-down alone -0.604; inactive.
Knock-down of SRPK2 (SRSF protein kinase 2) came out at: robust z-score, knock-down alone 0.447; inactive.

No new results follow: an excerpt of the list.
CAMK1G (calcium/calmodulin dependent protein kinase IG): robust z-score, knock-down alone = 0.687; call = inactive
CDK5R1 (cyclin dependent kinase 5 regulatory subunit 1): robust z-score, knock-down alone = -0.604; call = inactive
SRPK2 (SRSF protein kinase 2): robust z-score, knock-down alone = 0.447; call = inactive

Continued.
Silencing of FYN (FYN proto-oncogene, Src family tyrosine kinase) came out at: robust z-score, knock-down alone 0.966; inactive.
Silencing of CSNK1G1 (casein kinase 1 gamma 1) came out at: robust z-score, knock-down alone -2.22; inactive.
For EPHA2 (EPH receptor A2), the entry reads robust z-score, knock-down alone 0.978; inactive.
Against DMPK (DM1 protein kinase) the deposit lists robust z-score, knock-down alone 0.989; inactive.
BRDT (bromodomain testis associated) scored robust z-score, knock-down alone 0.989; inactive.
NRK (Nik related kinase) gave robust z-score, knock-down alone 0.784; inactive.
MAPKAPK5 (MAPK activated protein kinase 5) scored robust z-score, knock-down alone 0.989; inactive.
With knock-down of STK36 (serine/threonine kinase 36) the results were robust z-score, knock-down alone 0.989; inactive.
LMTK3 (lemur tail kinase 3) scored robust z-score, knock-down alone -0.867; inactive.
NEK4 (NIMA related kinase 4) gave robust z-score, knock-down alone -0.542; inactive.
Depletion of DIS3 (DIS3 exosome endoribonuclease and 3'-5' exoribonuclease) gave: robust z-score, knock-down alone 0.199; inactive.
For VRK2 (VRK serine/threonine kinase 2), the entry reads robust z-score, knock-down alone 0.597; inactive.
Against FER (FER tyrosine kinase) the deposit lists robust z-score, knock-down alone 0.989; inactive.
